# Assay results

Source: PubChem BioAssay AID1508623 (NCATS, 2021).

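Firefly luciferase light from HEK293 cells carrying a huntingtin (HTT) promoter reporter, read after 24 hours of compound exposure, giving single-concentration activity change.
Percent change in reporter signal versus vehicle (0%) down to no light (-100%); more negative values mean stronger inhibition of promoter activity.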

Values are in %.
Common to all entries: at 57.5 µM (top of the series).
Only part of the assay is listed here, not a random draw.

Compound	activity change (%)
COc1cc(-c2nnc(SCC(=O)Nc3ccc(F)c(Cl)c3)o2)cc(OC)c1OC	-8.667
COc1ccc(N2CCN(C(=O)c3cc4c(=O)n(Cc5ccco5)ccc4nc3C)CC2)cc1	-38.95
Cc1cc(C)cc(OCCCn2c(-c3ccc(Cl)cc3)nc3ccccc3c2=O)c1	-10.83
COc1ccc(C2C(=O)N(C3CCCCCC3)CC(=O)N2CCc2ccccc2)cc1 (centres unmarked)	-12.84
CCc1nn(-c2ccccc2)c2nc(-c3ccc(O)cc3)c3cc(OC)c(OC)cc3c12	-5.453
CCOC(=O)CCc1c(C)c2cc3c(c(C)c2oc1=O)OCN(CCc1ccccc1OC)C3	-39.41
CCOc1ccccc1C(=O)Nc1cc2c(cc1N1CCCCC1)n(C)c(=O)n2C	-58.84
CCN1CCN(Cc2c(O)ccc3oc(C)c(C(=O)Nc4cccc(C(F)(F)F)c4)c23)CC1	-30.66
COCc1nc2cccnc2n1C1CCN(S(=O)(=O)N(C)C)CC1	-4.423
Cc1nc2ccn(Cc3ccco3)c(=O)c2cc1C(=O)NCc1ccccc1F	-39.5
CCOC(=O)c1cc(C)n(CC2CCC(C(=O)Nc3ccc(OC)c(OC)c3)CC2)c1C (centres unmarked)	-33.41
CCOC(=O)c1c(-c2ccccc2)oc2ccc(N(C(C)=O)S(=O)(=O)c3ccccc3)cc12	-11.62
Cc1oc2ccc(O)c(CN3CCCCC3C)c2c1C(=O)Nc1ccccc1 (centres unmarked)	-14.83
Cc1nc2ccn(Cc3ccco3)c(=O)c2cc1C(=O)NCc1ccc(F)cc1	-36.87
CCN1CCN(Cc2c(O)ccc3oc(C)c(C(=O)Nc4ccc(OC)cc4)c23)CC1	-1.97
COC(=O)c1c(C)oc2c1cc(NS(=O)(=O)c1c(C)cc(C)cc1C)c1ccccc12	-44.79
Cc1cc(C(=O)Nc2c(C)nn(Cc3ccc(F)cc3)c2C)no1	-27.75
COc1ccccc1CNC(=O)CCc1c(C)nn(-c2ccc(N3CCCC3)nn2)c1C	-18.45
Cc1ccnc(NS(=O)(=O)c2ccc(NC(=O)c3ccc(C)c(C)c3)cc2)n1	-0.8536
Cc1ccc(NC(=O)CSc2nnc(COc3ccc(Cl)cc3)o2)c(C)c1	-11.45
CCc1ccc(CNC(=O)CCc2c(C)nn(-c3ccc(N4CCCCC4)nn3)c2C)cc1	-56.97
Cc1ccccc1C(=O)N1CCC(N2CCN(Cc3ccc(F)cc3)C(=O)C2=O)CC1	-10.25
Cc1ccc(NC(=O)c2ccc3c(c2)NC(=O)c2ccccc2S3)c(Cl)c1	-70
CCc1cccc(CC)c1NC(=O)c1c(C)oc2ccc(O)c(CN3CCOCC3)c12	-9.851
Cc1cc(C)c(S(=O)(=O)Nc2ccc(-c3ccc(N4CCCCC4)nn3)cc2)c(C)c1	4.249
CCOc1ccc2nc(Cl)c(C3CC(c4ccc(C)cc4)=NN3C(=O)CCC(=O)O)cc2c1 (centres unmarked)	-17.45
CCOC(=O)c1cccc(NC(=O)CCc2c(C)nn(-c3ccc(N4CCCCC4)nn3)c2C)c1	-13.3
O=C(CC(c1ccccc1)c1cc(Br)ccc1O)NCC1(c2ccccc2)CCCC1 (centres unmarked)	-77.02
O=S(=O)(Nc1cccc(-c2ccc(N3CCOCC3)nn2)c1)c1ccc(F)c(C(F)(F)F)c1	9.751
Cc1cc(C)c2oc(-c3cc(NC(=O)Cc4ccccc4)ccc3Cl)nc2c1	-25.51
COc1cc(NC(=O)c2cc3c(=O)n(Cc4ccco4)ccc3nc2C)cc(OC)c1OC	-28.6
Cc1ccc(NC(=O)c2c(C(=O)Nc3ccccc3)sc3nc(C)cc(=O)n23)c(C)c1	-38.78
COc1ccc(CNC(=O)c2cc3c(=O)n(Cc4ccco4)ccc3nc2C)c(OC)c1	-26.01
CCOC(=O)c1c(NC(=O)CCCOc2ccccc2C)sc2c1CCC(C)C2 (centres unmarked)	-6.274
CN(C)S(=O)(=O)N1CCC(n2c(C(F)(F)F)nc3cccnc32)CC1	-10.07
CCOc1ccc2nc(Cl)c(C3CC(c4ccc(C)cc4)=NN3C(=O)CCCC(=O)O)cc2c1 (centres unmarked)	-8.636
Cc1nn(-c2ccc(N3CCCCC3)nn2)c(C)c1CCC(=O)NCc1ccccc1	-2.645
Cc1cc(NC(c2nnc(-c3ccccc3)o2)c2ccccc2F)ccc1Br (centres unmarked)	-36.86
CCOc1ccc(NC(=O)c2ccc(-c3nc(COc4ccccc4)c(C)o3)cc2)cc1	-26.76
COc1cc(NC(=O)C2CCN(S(=O)(=O)Cc3ccccc3)CC2)c(OC)cc1Cl	-17.35
COc1ccc2c(C)c(CCC(=O)NCc3ccccc3OC)c(=O)oc2c1	-17.06
COC(=O)c1ccc(NC(=O)CC2C(=O)N(c3cccc(OC)c3)C(=O)N2Cc2cccc(OC)c2)cc1 (centres unmarked)	-7.871
Cc1ccc2oc(-c3cc(NC(=O)Cc4ccccc4)ccc3Cl)nc2c1	-35.99
CCOC(=O)/C(C#N)=C/c1ccc(-c2ccc(C)cc2)o1	23.81
COc1cc(NC(=O)c2ccc(C(=O)Nc3cc(OC)c(Cl)cc3OC)cc2)c(OC)cc1Cl	-8.838
COc1ccc(C2=C(N3CCN(c4cc(Cl)ccc4C)CC3)c3ccccc3C2=O)cc1	7.769
COc1ccc(C2C(=O)N(C3CCCCCC3)CC(=O)N2Cc2ccc(C)cc2)cc1OC (centres unmarked)	-25.61
CCCOc1ccc(CNC(=O)Cn2c(=O)oc3ccccc32)cc1	-28
CCOc1ccc(C2C(=O)N(C3CCCCCC3)CC(=O)N2Cc2ccc(F)cc2)cc1OC (centres unmarked)	-40.87
COc1ccc(CCN2C(=O)CN(C3CCCCCC3)C(=O)C2c2ccc(OC(C)C)c(OC)c2)cc1OC (centres unmarked)	-3.562
CCCOc1ccc(NC(=O)CC2C(=O)N(c3cccc(OC)c3)C(=O)N2CCc2ccncc2)cc1 (centres unmarked)	-18.48
Cc1ccc(CCNC(c2ccc(F)cc2)c2nnc(-c3ccccc3Cl)o2)cc1 (centres unmarked)	-27.75
COc1ccc(N(CC(=O)N2CCCCC2)S(=O)(=O)c2ccc(OC)c(OC)c2)cc1	-16.39
Cc1oc2ccc(O)c(CN3CCN(C)CC3)c2c1C(=O)Nc1cccc(Cl)c1C	-7.517
CC1Cc2cc(S(=O)(=O)CCC(=O)Nc3ccc(Cl)cc3F)ccc2N1C(=O)C1CC1 (centres unmarked)	-54.23
Cc1ccc(C)c(N2CCN(C(=O)c3cc4c(=O)n(Cc5ccco5)ccc4nc3C)CC2)c1	-33.62
CCN(c1ccccc1)S(=O)(=O)c1c(C)nc2scc(C)n2c1=O	-27.22
Cc1ccc(Cn2c(CO)cnc2SCC(=O)NCc2ccccc2Cl)cc1	-8.61
Cc1nn(-c2ccc(N3CCCC3)nn2)c(C)c1CCC(=O)NCc1ccccc1F	-23.83
CC(=O)c1cccc(NC(=O)Nc2sc3nc4n(c(=O)c3c2C)CCC(C)CC4)c1 (centres unmarked)	-10.77
O=S(=O)(Nc1cccc(-c2ccc(N3CCCCCC3)nn2)c1)c1ccccc1F	18.94
N=c1n(CCO)c2ccccc2n1CCOc1ccc(F)cc1	-6.888
COc1cc(NC(=O)c2noc3c2CC(C(C)(C)C)CC3)cc(OC)c1OC (centres unmarked)	-5.663
COc1ccc(C)cc1NC(=O)c1c(C(=O)Nc2cccc(C)c2C)sc2nc(C)cc(=O)n12	-14.19
COc1ccc(S(=O)(=O)Nc2cc3c(cc2NCc2ccccc2)n(C)c(=O)n3C)cc1	57.4
CCOc1ccc(C2C(=O)N(C3CCCCC3)CC(=O)N2Cc2ccccc2OC)cc1OC (centres unmarked)	-24.8
CCOc1ccccc1CNC(=O)CCc1c(C)nn(-c2ccc(N3CCCC3)nn2)c1C	-29.98
COc1ccc(NC(=O)c2cnc3sc(N4CCOCC4)nn3c2=O)c(OC)c1	-3.647
CCc1nn2c(=O)c(S(=O)(=O)Nc3ccc(C)c(C)c3)c(C)nc2s1	-52.23
Cc1ccc(CN2CCN(C3CCN(C(=O)c4ccccc4)CC3)C(=O)C2=O)cc1	-12.99
CCOC(=O)c1cc(C)n(CC2CCC(C(=O)Nc3ccc(OC)cc3)CC2)c1C (centres unmarked)	-93.47
O=C(O)CCc1ccc(-c2ccccc2)n1-c1cccc(Br)c1	-23.44
COc1ccc2c(c1)cc1c(=O)n(CC(=O)NC(C)C)nc(C)n12	-12.67
COc1ccc(OC)c(CNc2nc3ccc(C)cc3n3nnnc23)c1	-30.37
CCOC(=O)C1CCCN(CCC(=O)Nc2cccc(C)c2)C1 (centres unmarked)	-9.596
Cc1cc(C)cc(OCCSc2nc(-c3cccs3)nc3cc(=O)[nH]n23)c1	-13.22
COc1ccc(-c2cc(C(=O)N3CCN(c4ccccc4)CC3)no2)cc1	-4.844
Cc1ccc(NC(=O)CSc2nc(-c3ccco3)nc3cc(=O)[nH]n23)cc1C	-14.68
Cc1ccc(-c2nc3ncccc3o2)cc1NC(=O)COc1ccc(C(C)C)cc1	-32.4
CC(NC(=O)c1cc2ccccn2n1)c1ccccc1 (centres unmarked)	-7.418
Cc1ccc2nc(N3CCN(c4ccc(F)cc4)CC3)c3nnnn3c2c1	-14.64
COc1ccc(C(CC(=O)Nc2ccc(Br)cn2)N2Cc3ccccc3C2=O)cc1 (centres unmarked)	-27.29
CCS(=O)(=O)N1CCC(n2c(C)nc3cccnc32)CC1	-13.06
CCOc1ccccc1NC(=O)C1CCN(S(=O)(=O)Cc2ccccc2)CC1	-11.1
CCCCOc1ccc(S(=O)(=O)Nc2ccc(-c3ccc(N4CCCCC4)nn3)cc2)cc1	-13.17
COC(=O)c1ccccc1NC(=O)c1ccc(-c2nc(COc3ccccc3)c(C)o2)cc1	-16.97
COc1cc(NC(=O)CC2C(=O)N(c3cccc(C)c3)C(=O)N2Cc2ccco2)cc(OC)c1 (centres unmarked)	-26.71
CCOC(=O)c1cccc(NC(=O)CC2C(=O)N(c3ccc(Cl)cc3)C(=O)N2C2CCCC2)c1 (centres unmarked)	-60.79
Cc1cc(Cl)ccc1NS(=O)(=O)c1ccc2c(c1)CC(C)N2C(=O)C1CCC1 (centres unmarked)	-94.16
CCOC(=O)c1c(-c2ccccc2)oc2ccc(NS(=O)(=O)c3ccccc3)cc12	-28.73
COc1ccc(-c2cc(C(=O)Nc3sc4c(c3C(N)=O)CCCC4)no2)cc1	1.157
Cc1cc(S(=O)(=O)Nc2cc3c(cc2NCc2ccccc2)n(C)c(=O)n3C)ccc1F	50.95

5 of the entries, repeated:

* COC(=O)c1ccc(NC(=O)CC2C(=O)N(c3cccc(OC)c3)C(=O)N2Cc2cccc(OC)c2)cc1 (centres unmarked) : activity change -7.871%
* COc1ccc(OC)c(CNc2nc3ccc(C)cc3n3nnnc23)c1 : activity change -30.37%
* COc1cc(NC(=O)c2noc3c2CC(C(C)(C)C)CC3)cc(OC)c1OC (centres unmarked) : activity change -5.663%
* CCOC(=O)C1CCCN(CCC(=O)Nc2cccc(C)c2)C1 (centres unmarked) : activity change -9.596%
* Cc1ccc(CCNC(c2ccc(F)cc2)c2nnc(-c3ccccc3Cl)o2)cc1 (centres unmarked) : activity change -27.75%